According to the supplement of paper PMC8728848:
Some of the results follow.

Tests used:
Assay in all cases: glycan array binding signal (z-score within array); higher = stronger binding
Conditions in all cases: glycan notation: IUPAC condensed, linker removed
[1] = biological target: Gal(b1-3)GalNAc(b1-3)Gal(a1-4)Gal(b1-4)Glc
Method in brief: (§1)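 Negative Z-scores can be read as non-binding. The Z-score is calculated within each array and then averaged across arrays of one protein sequence at different concentrations or buffers and across linkers. Arrays, 3228 in all, were curated from the Consortium for Functional Glycomics database and kept only where the protein sequence was available.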

[2] = biological target: Gal(b1-3)GalNAc(b1-4)Gal(b1-4)Glc
Method in brief: as §1

[3] = biological target: Gal(b1-3)GalNAc(b1-4)[Neu5Ac(a2-3)]Gal(b1-4)Glc
Method in brief: as §1

Gal(b1-3)GlcNAc = biological target: Gal(b1-3)GlcNAc
Method in brief: as §1

[4] = biological target: Gal(b1-3)GlcNAc(a1-3)Gal(b1-4)GlcNAc
Method in brief: as §1

[5] = biological target: Gal(b1-3)GlcNAc(a1-6)Gal(b1-4)GlcNAc
Method in brief: as §1

Gal(b1-3)GlcNAc(b1-2)Man = biological target: Gal(b1-3)GlcNAc(b1-2)Man
Method in brief: as §1

[6] = biological target: Gal(b1-3)GlcNAc(b1-2)Man(a1-3)[Gal(b1-3)GlcNAc(b1-2)Man(a1-6)]Man(b1-4)GlcNAc(b1-4)GlcNAc
Method in brief: as §1

[7] = biological target: Gal(b1-3)GlcNAc(b1-2)Man(a1-3)[Gal(b1-3)GlcNAc(b1-2)Man(a1-6)]Man(b1-4)GlcNAc(b1-4)[Fuc(a1-6)]GlcNAc
Method in brief: as §1

[8] = biological target: Gal(b1-3)GlcNAc(b1-2)Man(a1-3)[GlcNAc(b1-4)][Gal(b1-3)GlcNAc(b1-2)Man(a1-6)]Man(b1-4)GlcNAc(b1-4)GlcNAc
Method in brief: as §1

[9] = biological target: Gal(b1-3)GlcNAc(b1-2)[Gal(b1-3)GlcNAc(b1-6)]Man(a1-6)[Gal(b1-3)GlcNAc(b1-2)Man(a1-3)]Man(b1-4)GlcNAc(b1-4)GlcNAc
Method in brief: as §1

[10] = biological target: Gal(b1-3)GlcNAc(b1-3)Gal(b1-3)GlcNAc
Method in brief: as §1

[11] = biological target: Gal(b1-3)GlcNAc(b1-3)Gal(b1-4)Glc
Method in brief: as §1

[12] = biological target: Gal(b1-3)GlcNAc(b1-3)Gal(b1-4)GlcNAc
Method in brief: as §1

[13] = biological target: Gal(b1-3)GlcNAc(b1-3)Gal(b1-4)GlcNAc(b1-2)Man(a1-3)[Gal(b1-3)GlcNAc(b1-3)Gal(b1-4)GlcNAc(b1-2)Man(a1-6)]Man(b1-4)GlcNAc(b1-4)GlcNAc
Method in brief: as §1

[14] = biological target: Gal(b1-3)GlcNAc(b1-3)Gal(b1-4)GlcNAc(b1-2)[Gal(b1-3)GlcNAc(b1-3)Gal(b1-4)GlcNAc(b1-6)]Man(a1-6)[Gal(b1-3)GlcNAc(b1-3)Gal(b1-4)GlcNAc(b1-2)Man(a1-3)]Man(b1-4)GlcNAc(b1-4)[Fuc(a1-6)]GlcNAc
Method in brief: as §1

[15] = biological target: Gal(b1-3)GlcNAc(b1-3)Gal(b1-4)GlcNAc(b1-3)Gal(b1-4)GlcNAc(b1-2)[Gal(b1-3)GlcNAc(b1-3)Gal(b1-4)GlcNAc(b1-3)Gal(b1-4)GlcNAc(b1-6)]Man(a1-6)[Gal(b1-3)GlcNAc(b1-3)Gal(b1-4)GlcNAc(b1-3)Gal(b1-4)GlcNAc(b1-2)Man(a1-3)]Man(b1-4)GlcNAc(b1-4)[Fuc(a1-6)]GlcNAc
Method in brief: as §1

[16] = biological target: Gal(b1-3)GlcNAc(b1-3)Gal(b1-4)GlcNAc(b1-6)[Gal(b1-3)GlcNAc(b1-3)]Gal(b1-4)Glc
Method in brief: as §1

[17] = biological target: Gal(b1-3)GlcNAc(b1-3)Gal(b1-4)[Fuc(a1-3)]GlcNAc
Method in brief: as §1

[18] = biological target: Gal(b1-3)GlcNAc(b1-3)Gal(b1-4)[Fuc(a1-3)]GlcNAc(b1-6)[Gal(b1-3)GlcNAc(b1-3)]Gal(b1-4)Glc
Method in brief: as §1

[19] = biological target: Gal(b1-3)GlcNAc(b1-3)GalNAc
Method in brief: as §1

[20] = biological target: Gal(b1-3)GlcNAc(b1-6)Gal(b1-4)GlcNAc
Method in brief: as §1

[21] = biological target: Gal(b1-3)GlcNAc(b1-6)GalNAc
Method in brief: as §1

[22] = biological target: Gal(b1-3)GlcNAc(b1-6)[Gal(b1-3)]GalNAc
Method in brief: as §1

Gal(b1-3)GlcNAc6S = biological target: Gal(b1-3)GlcNAc6S
Method in brief: as §1

[23] = biological target: Gal(b1-3)[Fuc(a1-4)]GlcNAc
Method in brief: as §1

[24] = biological target: Gal(b1-3)[Fuc(a1-4)]GlcNAc(b1-2)Man
Method in brief: as §1

[25] = biological target: Gal(b1-3)[Fuc(a1-4)]GlcNAc(b1-2)Man(a1-3)[Gal(b1-3)[Fuc(a1-4)]GlcNAc(b1-2)Man(a1-6)]Man(b1-4)GlcNAc(b1-4)[Fuc(a1-6)]GlcNAc
Method in brief: as §1

[26] = biological target: Gal(b1-3)[Fuc(a1-4)]GlcNAc(b1-3)Gal(b1-3)[Fuc(a1-4)]GlcNAc
Method in brief: as §1

[27] = biological target: Gal(b1-3)[Fuc(a1-4)]GlcNAc(b1-3)Gal(b1-4)[Fuc(a1-3)]GlcNAc
Method in brief: as §1

[28] = biological target: Gal(b1-3)[Fuc(a1-4)]GlcNAc(b1-6)GalNAc
Method in brief: as §1

[29] = biological target: Gal(b1-3)[GlcNAc(b1-6)]GalNAc
Method in brief: as §1

[30] = biological target: Gal(b1-3)[Neu5Ac(a2-6)]GalNAc
Method in brief: as §1

[31] = biological target: Gal(b1-3)[Neu5Ac(a2-6)]GlcNAc(b1-4)Gal(b1-4)Glc
Method in brief: as §1

[32] = biological target: Gal(b1-3)[Neu5Ac(b2-6)]GalNAc
Method in brief: as §1

Gal(b1-4)Gal = biological target: Gal(b1-4)Gal
Method in brief: as §1

[33] = biological target: Gal(b1-4)GalNAc(a1-3)[Fuc(a1-2)]Gal(b1-4)GlcNAc
Method in brief: as §1

[34] = biological target: Gal(b1-4)GalNAc(b1-3)[Fuc(a1-2)]Gal(b1-4)GlcNAc
Method in brief: as §1

B1: GS13814A-bth-462-26-462 (Bacteroides thetaiotaomicron) (protein)
chain: DDRDNLMVNDQIGLLHSTYTETEIFRGMDTPYQLFVIKSGKGKQETEVSISVDETVLQSYNTDNGTSIQLLPSDCYTILQPALRLNDSDYRKAFDIKWNADRLSDLLSTGKEYGLPIQMSVVQNFISADDERLKTIIVPTIKEPYLQMDVPGMSPVTDFMPTFGDLNERELFVKIRTNYSNDEDISFQIEVDPQLVIDYNTAHGTAYKMLPESSFTVDNKGVILTGMKETFIKIKYHKKGLIPEEGTYLFGDYVLPLRITSVSKYGISPDAASKLYTVKFQPDPIDKKGWSVIDFNNCCTQDGGWYLNMGWGVESLIDNNPGTQWLCRWDVKEPLPYYFVFDMGKEYTLFRFGFANPVAPAAHVWAGTSKAGYVEASIDNENWVKLKDWTSPKIGEPNVNMDVPATQARYIRFVITDTYPTYDGLRVSLGEVYAWGM
Question: What does the source list for B1?
Answer: glycan array binding signal (z-score) [1]: -1.37; glycan array binding signal (z-score) [2]: -0.387; glycan array binding signal (z-score) [3]: 0.392; glycan array binding signal (z-score) (Gal(b1-3)GlcNAc): -0.451; glycan array binding signal (z-score) [4]: -0.742; glycan array binding signal (z-score) [5]: -0.371; glycan array binding signal (z-score) (Gal(b1-3)GlcNAc(b1-2)Man): 2.1; glycan array binding signal (z-score) [6]: 1.12; glycan array binding signal (z-score) [7]: 0.998; glycan array binding signal (z-score) [8]: 0.37; glycan array binding signal (z-score) [9]: 0.334; glycan array binding signal (z-score) [10]: -0.09; glycan array binding signal (z-score) [11]: -0.983; glycan array binding signal (z-score) [12]: -0.017; glycan array binding signal (z-score) [13]: -0.375; glycan array binding signal (z-score) [14]: -0.234; glycan array binding signal (z-score) [15]: 1.4; glycan array binding signal (z-score) [16]: 0.724; glycan array binding signal (z-score) [17]: 0.725; glycan array binding signal (z-score) [18]: -0.616; glycan array binding signal (z-score) [19]: -1.28; glycan array binding signal (z-score) [20]: -0.699; glycan array binding signal (z-score) [21]: -0.496; glycan array binding signal (z-score) [22]: -0.731; glycan array binding signal (z-score) (Gal(b1-3)GlcNAc6S): -0.103; glycan array binding signal (z-score) [23]: 0.914; glycan array binding signal (z-score) [24]: 0.146; glycan array binding signal (z-score) [25]: 0.517; glycan array binding signal (z-score) [26]: -0.115; glycan array binding signal (z-score) [27]: 0.434; glycan array binding signal (z-score) [28]: 0.892; glycan array binding signal (z-score) [29]: 0.276; glycan array binding signal (z-score) [30]: 0.296; glycan array binding signal (z-score) [31]: -0.34; glycan array binding signal (z-score) [32]: -0.165; glycan array binding signal (z-score) (Gal(b1-4)Gal): 0.445; glycan array binding signal (z-score) [33]: -0.741; glycan array binding signal (z-score) [34]: -0.743
